Assay [1] deals with T1, Neuraminidase 4 (NEU4) (human (endogenous in HK-2)) (UniProt Q8WWR8).
T1 sequence: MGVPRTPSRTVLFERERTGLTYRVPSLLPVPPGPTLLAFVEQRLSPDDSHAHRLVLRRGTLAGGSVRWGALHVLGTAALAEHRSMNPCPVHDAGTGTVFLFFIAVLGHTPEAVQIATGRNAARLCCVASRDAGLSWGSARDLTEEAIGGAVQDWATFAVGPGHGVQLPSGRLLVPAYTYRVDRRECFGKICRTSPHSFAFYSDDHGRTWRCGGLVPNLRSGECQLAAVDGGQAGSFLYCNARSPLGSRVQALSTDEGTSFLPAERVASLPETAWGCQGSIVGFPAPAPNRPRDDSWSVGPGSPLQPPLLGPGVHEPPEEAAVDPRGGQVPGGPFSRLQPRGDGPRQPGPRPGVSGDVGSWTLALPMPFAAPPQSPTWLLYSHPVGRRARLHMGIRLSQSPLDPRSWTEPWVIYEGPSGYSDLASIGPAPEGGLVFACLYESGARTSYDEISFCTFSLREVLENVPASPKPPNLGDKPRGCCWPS
The assay is described as follows: co-IP; HK-2 cells treated with TGF-β, with or without HMF (HMF notably hindered the interaction); IP-lysis buffer, antibody or IgG overnight at 4 °C, Protein A/G magnetic beads, three washes with PBST, Western blot. For orientation: Immunoblotting shows a protein as a band on a membrane.

Amino acid sequences for entries named in this document (tags omitted). A change or cut given only in a name is not applied to a line headed by its entry. Residues count along the entry.
UniProt P46937: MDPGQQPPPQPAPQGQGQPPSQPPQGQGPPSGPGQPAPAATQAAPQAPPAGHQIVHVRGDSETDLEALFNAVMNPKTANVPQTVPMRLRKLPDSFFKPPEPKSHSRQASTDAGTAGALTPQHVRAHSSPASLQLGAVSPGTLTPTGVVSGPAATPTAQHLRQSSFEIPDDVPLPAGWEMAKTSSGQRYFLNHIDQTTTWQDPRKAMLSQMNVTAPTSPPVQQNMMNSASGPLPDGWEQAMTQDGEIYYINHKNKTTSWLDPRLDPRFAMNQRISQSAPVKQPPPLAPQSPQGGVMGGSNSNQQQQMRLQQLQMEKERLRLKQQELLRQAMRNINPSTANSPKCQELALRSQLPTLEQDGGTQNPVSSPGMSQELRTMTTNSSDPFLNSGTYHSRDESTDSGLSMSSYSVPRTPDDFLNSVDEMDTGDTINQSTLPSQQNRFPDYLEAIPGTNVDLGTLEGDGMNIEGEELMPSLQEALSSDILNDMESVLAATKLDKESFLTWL
His-YAP (231-263aa): residues 231-263 of P46937

For assay [2], the target named is T2, pBiFC-NEU4(human)(254-388aa)-CC155 (human) (UniProt Q8WWR8).
T2 sequence: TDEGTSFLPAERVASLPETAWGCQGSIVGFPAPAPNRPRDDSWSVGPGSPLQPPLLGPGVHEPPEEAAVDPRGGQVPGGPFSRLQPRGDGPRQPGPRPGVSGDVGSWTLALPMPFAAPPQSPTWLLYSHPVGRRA
The assay is described as follows: split reporter; BiFC in 293T cells co-transfected with the CC155 and CrN173 fusions; controls with one plasmid alone; high content imaging.

Assay [3] has as its target His-YAP (231-263aa) (human) (UniProt P46937). The assay is described as follows: co-IP; HEK293T cells co-transfected with the tagged constructs; cell lysates IP with His antibody (Figure 5E,F); the precipitating antibody of Figure 5G is not told.

These are yes or no findings as the source states them, for the method shown. In cells and extracts the contact can be indirect. Some binding calls cover weakened binding; strength is not graded here. For part of these data: Sequences can lack the tags named with a protein.

Turning to “Yes-associated protein (YAP) (from UniProt P46937 1-504)”, the binding entry in assay [1] was “binds”.

With “pBiFC-YAP1(human)(231-263aa)-CrN173 (from UniProt P46937 231-263) (domain or fragment)”, in assay [2], the binding result is recorded as “binds”.

B1: HA-tagged NEU4 (protein, UniProt Q8WWR8 1-484)
chain: MGVPRTPSRTVLFERERTGLTYRVPSLLPVPPGPTLLAFVEQRLSPDDSHAHRLVLRRGTLAGGSVRWGALHVLGTAALAEHRSMNPCPVHDAGTGTVFLFFIAVLGHTPEAVQIATGRNAARLCCVASRDAGLSWGSARDLTEEAIGGAVQDWATFAVGPGHGVQLPSGRLLVPAYTYRVDRRECFGKICRTSPHSFAFYSDDHGRTWRCGGLVPNLRSGECQLAAVDGGQAGSFLYCNARSPLGSRVQALSTDEGTSFLPAERVASLPETAWGCQGSIVGFPAPAPNRPRDDSWSVGPGSPLQPPLLGPGVHEPPEEAAVDPRGGQVPGGPFSRLQPRGDGPRQPGPRPGVSGDVGSWTLALPMPFAAPPQSPTWLLYSHPVGRRARLHMGIRLSQSPLDPRSWTEPWVIYEGPSGYSDLASIGPAPEGGLVFACLYESGARTSYDEISFCTFSLREVLENVPASPKPPNLGDKPRGCCWPS
B1: the binding result in assay [3] was “binds”.

Values taken from publication PMC11497051.
